{
  "sequences": {"note": "The chains behind the UniProt entries cited, without tags or fusion partners. Residues count along the entry.", "UniProt O00187, residues 16-686": "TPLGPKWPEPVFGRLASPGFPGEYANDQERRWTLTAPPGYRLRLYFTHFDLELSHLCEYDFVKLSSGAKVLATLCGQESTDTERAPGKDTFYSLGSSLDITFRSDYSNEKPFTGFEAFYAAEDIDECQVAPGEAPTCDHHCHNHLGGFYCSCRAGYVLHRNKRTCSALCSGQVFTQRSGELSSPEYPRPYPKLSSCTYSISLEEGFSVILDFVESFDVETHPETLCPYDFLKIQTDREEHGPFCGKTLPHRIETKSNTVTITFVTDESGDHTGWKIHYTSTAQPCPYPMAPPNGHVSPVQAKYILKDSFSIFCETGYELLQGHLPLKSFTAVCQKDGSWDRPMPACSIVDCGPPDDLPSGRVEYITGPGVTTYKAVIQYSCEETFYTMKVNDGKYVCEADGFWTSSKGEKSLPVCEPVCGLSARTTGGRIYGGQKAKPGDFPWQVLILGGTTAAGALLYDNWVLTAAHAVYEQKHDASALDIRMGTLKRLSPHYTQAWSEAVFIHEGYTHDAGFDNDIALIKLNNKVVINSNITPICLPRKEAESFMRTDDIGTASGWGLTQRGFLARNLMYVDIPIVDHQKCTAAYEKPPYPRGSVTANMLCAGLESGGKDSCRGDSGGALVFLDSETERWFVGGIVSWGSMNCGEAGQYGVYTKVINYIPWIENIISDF", "UniProt P11226, residues 21-248": "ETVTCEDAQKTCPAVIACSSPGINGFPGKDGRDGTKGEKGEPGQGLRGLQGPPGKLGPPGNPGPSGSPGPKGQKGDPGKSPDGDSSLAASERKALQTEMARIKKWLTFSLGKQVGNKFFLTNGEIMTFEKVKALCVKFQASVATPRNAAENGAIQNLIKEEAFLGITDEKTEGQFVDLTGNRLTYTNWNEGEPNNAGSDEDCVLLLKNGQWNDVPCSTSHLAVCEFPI"},
  "source": "patent US20050037949A1",
  "about": "“Mannose binding lectin and uses thereof” (priority 2002, published 2005)",
  "note": "Results are given in words; binding and its absence hold for the method and conditions named. Some results given as binding are weak or reduced against the parent protein; the word gives no strength.",
  "data": [
    {"target": "MBL associated serine protease 2 (MASP2) (human) (UniProt O00187)", "test": "C4 deposition assay on mannan-coated plates with MBL-deficient human serum (recruitment inferred)", "values": [
      {"substance": "MASP-depleted MBL fraction 3 (from UniProt P11226 21-248)", "binding": "binds"},
      {"substance": "MASP-depleted MBL pool of fractions 3-7 (from UniProt P11226 21-248)", "binding": "binds"},
      {"substance": "MASP-depleted MBL pool of fractions 8-9 (from UniProt P11226 21-248)", "binding": "binds"},
      {"substance": "MASP-depleted MBL fraction 5 (from UniProt P11226 21-248)", "binding": "binds"}
    ]}
  ]
}
